Data taken from PubChem BioAssay AID445 (National Center for Advancing Translational Sciences (NCATS), 2006).
The other results are listed elsewhere or left out. The main result of the screen is listed elsewhere. These columns were measured beside it and carry no call. The list favours compounds with an active or inconclusive main result. Potencies come from curve fits of mixed quality, noted in brackets.

Assay: IkB Signaling
Conditions: ABC-DLBCL IkBa-CBG/CBR dual luciferase ratio (green luciferase fused to IkBa over red control in OCI-Ly3 lymphoma cells), 4 h; measured here: control luc red channel unless noted
Source text: NIH Molecular Libraries Screening Centers Network [MLSCN]
NIH Chemical Genomics Center [NCGC]
Nuclear factor kappa-B (NF-kappa-B) plays an important role in normal B cell development and survival. Diffuse large B cell lymphoma (DLBCL) is the most commonly observed type of non-Hodgkin's lymphoma. Gene expression analysis has identified an activated B cell-like subtype of DLBCL (ABC-DLBCL) which expresses known NF-kappa-B target genes. […] However, targets upstream of IKK have been largely unexplored and so nodes upstream of IKK in the NF-kappa-B pathway remain untested due to the lack of chemical probes.
A cell-sensor assay for I-kappa-B-alpha stabilization was developed with NIH investigator Dr. R. Eric Davis in Dr. Louis M. Staudt's laboratory. The assay uses green (CBG68) and red (CBR) emitting beetle luciferases [Chroma-Glo(TM) developed by Promega Corp.] where the green luciferase is fused to I-kappa-B-alpha and the red luciferase is present in its native state. Both luciferase genes are stably present in the OCI-Ly3 human ABC DLBCL cell line, but their expression is under the control of tetracycline-inducible promoters. Following the addition of doxycycline to induce expression of the luciferases, the green luminescence in control cultures rises only slowly because the CBG fusion partner I-kappa-B-alpha is targeted by IKK activity for rapid degradation. In contrast, green luminescence rises rapidly in the presence of proteasome inhibitors or IKK inhibitors. The rise in red luminescence of CBR is not affected by proteasome or IKK inhibitors, and serves as normalization for cell number and nonspecific effects. Compounds were screened as a concentration-titration series that ranged from 57 uM to 0.7 nM.
NCGC Assay Protocol Summary:
Cells were seeded in 1536-well plates at 5000 cells/3ul in IMDM medium containing 0.5% FBS, w/o phenol red, L-glutamine, 25 mM HEPES, 3 mg/ml sodium bicarbonate. After centrifugation for 1 min. at 1000 rpm, 23 nl of compounds or DMSO were delivered to each well using a pin tool. Then 1ul 80ng/ml doxycycline was dispensed into white solid 1536-well plates and the plates were incubated at 37C/5% C02 in a cell incubator for 4 hrs. Then 4 ul Chroma-Glo luminescent substrate mix (Promega) was added to each well. The plate was incubated at R.T. for 10-15 min. The plates were measured on a ViewLux plate reader for green luminescence (540/20 nm filter) and red luminescence (618/8 nm filter). The green and red luminescent signals were corrected for red and green luminescence filter overlap using previously determined filter calibration constants (determined using the procedure outlined in the Promega Technical Manual). The %Activity was determined from the ratio of corrected green/red luminescent values. Green luminescent and ratio %Activity was determined by normalizing to the difference in signal between basal cells (0% Activity) and cells incubated with 10 uM of the proteasome inhibitor MG-132 (100% Activity). Red luminescent %Activity was normalized to the difference between red luminesence in basal cells (0%Activity) and zero luminescence (-100% Activity).
Concentration-response curves were fitted to the signals arising from the green luminescence (I-kappa-B-alpha-luciferase fusion; IkB-luc) and the red luminescence (unfused luciferase; luc) as well as the calculated ratio. The concentration-effect curves were then classified based on curve quality (r2), response magnitude and degree of measured activity. Compounds were then categorized based on their concentration-response curves for all three datasets (Ikb-luc, luc and ratio).
Keywords: IKK, I-kappa-B, IkB, IkBa, cytotoxicity, luminescence, MLSMR, MLSCN, NIH Roadmap, qHTS, NCGC
For `CCOC(=O)c1cc(-c2ccccc2)n(CCCC(=O)Nc2ccc(C)cc2Cl)c1C`, the AC50 was 1 µM [rising, partial curve].
With `COCC(C)n1c(C)cc(C(=O)COC(=O)c2oc3ccccc3c2C)c1C` (stereo not given) the AC50 was 15.8 µM [falling, partial curve].
With `COc1ccc(CCNC(=O)c2oc3ccc(S(=O)(=O)N4CCOCC4)cc3c2C)cc1OC` the AC50 was 20 µM [falling, single point].
With `CC(=O)NCc1nc2cccnc2n1Cc1ccccc1` the AC50 was 20 µM [rising, single point].
With `COc1ccc2nc(NC(=O)CSc3nnnn3C3CCCCC3)sc2c1` the AC50 was 31.6 µM [falling, single point].
In the case of `Cc1cccc(CCNC(=O)c2ccc3c(c2)nc2n3CCCCC2)c1`, the AC50 is reported as 39.8 µM [falling, single point].
With `Cc1nc2c(-c3ccc(F)cc3)c(C)nn2c(C)c1CCC(=O)N1CCN(c2ccc(F)cc2)CC1` the AC50 was 25.1 µM [falling, partial curve].
In the case of `COc1ccccc1N1CCN(C(=O)Cn2cnc3sc(C)c(S(=O)(=O)N4CCC(C)CC4)c3c2=O)CC1`, the AC50 is reported as 0.0501 µM [falling, full curve].
For `COc1ccc(Cl)cc1N(C)C(=O)Cc1noc2ccc(C)cc12`, the AC50 was 39.8 µM [falling, single point].
For `Cc1cccc(Cc2c(C)nc3nc(SCC(=O)NCc4ccc(F)cc4)nn3c2C)c1`, the AC50 was 20 µM [falling, partial curve].
With `Cc1cc(C)c2c(=O)cc(C(=O)Nc3ccc(S(=O)(=O)Nc4onc(C)c4C)cc3)oc2c1` the AC50 was 20 µM [falling, single point].
In the case of `O=C(c1ccc(CS(=O)(=O)c2ccc(Br)cc2)o1)N1CCN(c2ccccn2)CC1`, the AC50 is reported as 15.8 µM [falling, partial curve].
In the case of `CCC(C)NC(=O)c1ccc2c(c1)N=C(C)c1cc(C)ccc1S2` (stereo not given), the AC50 is reported as 1.58 µM [rising, partial curve].
With `Cc1nn(-c2ccccc2)c2sc(C(=O)N3CCc4ccccc4C3)cc12` the AC50 was 20 µM [falling, partial curve].
With `Cc1ccc(-n2c(C)cc(C(=O)COC(=O)c3c(C)noc3C)c2C)cc1` the AC50 was 39.8 µM [falling, single point].
For `CCN1C(=O)c2ccccc2Sc2ccc(NC(=O)Cc3ccc(OC)cc3)cc21`, the AC50 was 12.6 µM [falling, partial curve].
In the case of `CC(C)CC(=O)Nc1nnc2n1CCS2`, the AC50 is reported as 0.126 µM [rising, full curve].
In the case of `CCOc1ccc(NCc2cccn2-c2nnc(N3CCC(C(=O)NCc4cccc(OC)c4)CC3)s2)cc1`, the AC50 is reported as 25.1 µM [falling, partial curve].
For `COc1ccc(-n2nnc(C(=O)Nc3ccccc3F)c2N)cc1`, the AC50 was 7.94 µM [falling, full curve].
With `COc1cccc(NC(=O)C(=O)NCCc2csc3nc(-c4ccccc4C)nn23)c1` the AC50 was 12.6 µM [falling, partial curve].
In the case of `CCc1ccccc1N(c1nc(-c2ccc(OC)c(OC)c2)no1)c1nc(-c2ccc(OC)c(OC)c2)no1`, the AC50 is reported as 3.16 µM [falling, partial curve, poor fit].
In the case of `Cn1c(=O)n(C)c2cc(NC(=O)c3cc4ccccc4o3)ccc21`, the AC50 is reported as 10 µM [falling, partial curve].
For `COc1ccc(Nc2nc3ccccc3nc2NS(=O)(=O)c2ccc(Cl)cc2)cc1OC`, the AC50 was 1.26 µM [falling, full curve].
In the case of `CCOC(=O)c1cccc(NC(=O)CSc2nc3cc4ccccc4cc3[nH]2)c1`, the AC50 is reported as 39.8 µM [rising, single point] [measured here: IkB-luc green channel].
With `COc1ccccc1-c1cc(C(=O)NCCc2ccccc2)no1` the AC50 was 20 µM [falling, partial curve].
For `CCC(C(=O)NCc1cccc(Br)c1)n1nc(C)c2c(C)n(-c3ccccc3)nc2c1=O` (stereo not given), the AC50 was 31.6 µM [falling, partial curve].
With `O=S(=O)(Nc1cccc(F)c1)c1ccc2[nH]c3c(c2c1)CCCCC3` the AC50 was 20 µM [falling, partial curve].
For `CC(=O)Nc1ccc(NC(=O)c2cnn(-c3ccccc3)c2C2CCN(C(=O)OC(C)(C)C)CC2)cc1`, the AC50 was 10 µM [falling, partial curve].
For `COC(=O)COc1ccc(S(=O)(=O)Nc2ccc3c(c2)OCCO3)cc1Cl`, the AC50 was 12.6 µM [falling, partial curve].
With `COC(=O)c1c(SCC(=O)Nc2cccc(Cl)c2C)[nH]c2ccccc2c1=O` the AC50 was 20 µM [falling, partial curve].
For `CN(C(=O)c1c2c(nc3ccccc13)C(=O)N(C1CCCCC1)C2)c1ccc(F)cc1`, the AC50 was 10 µM [falling, partial curve].
With `Cc1ccc(S(=O)(=O)NCCc2csc3nc(-c4ccccc4F)nn23)cc1C` the AC50 was 10 µM [falling, partial curve].
With `COc1cccc(-c2nc(SCc3ccc(C)cc3)n3[nH]c(=O)cc3n2)c1` the AC50 was 0.316 µM [rising, partial curve].
With `CCOC(=O)c1c(C)oc2ncnc(N3CCN(c4ccccc4)CC3)c12` the AC50 was 15.8 µM [falling, partial curve].
With `Cc1ccc(NC(=O)c2ccccc2F)nc1` the AC50 was 39.8 µM [falling, single point].
With `CC(NC(=O)C1CCN(S(=O)(=O)c2ccc3c(c2)oc(=O)n3C)CC1)c1ccccc1` (stereo not given) the AC50 was 3.16 µM [falling, single point].
With `COc1ccccc1NC1=NCC(=O)N1Cc1ccccc1` the AC50 was 5.01 µM [falling, partial curve].
For `COc1ccccc1-c1nc(S(=O)(=O)c2ccccc2)c(N2CCC(C)CC2)o1`, the AC50 was 5.01 µM [falling, full curve].
For `O=C(c1cc(-c2cccc(O)c2)on1)N1CCN(C(c2ccccc2)c2ccccc2)CC1`, the AC50 was 10 µM [falling, partial curve].
In the case of `CCS(=O)(=O)c1oc(-c2ccc(F)cc2)nc1S(=O)(=O)c1ccc(Br)cc1`, the AC50 is reported as 2 µM [falling, partial curve].
